Results of single-concentration screens

Measurements from “University of Dundee, Small-Polar-MMV Screening Library” (2021), ChEMBL document CHEMBL3988442.

Results are given as percent effect.
How 0% and 100% were set is not recorded. Most values in the screen are low, and negative values occur.
This is an unselected part of the compounds tested.
Two or more numbers in one place are separate tests of the same structure; such repeats can differ widely.

Mtb glucose medium: 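Whole-cell growth test on Mycobacterium tuberculosis, read after 3 days in glucose-containing 7H9 medium; the read-out is not stated. Compounds at 50 µM. Higher reads as more growth inhibition (inferred: compounds with an IC50 in retests scored well above the rest). Of about 69,000 compounds tested this way, about 760 (1.1%) reached 50% or more in at least one test.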
Mtb cholesterol medium: 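Phenotypic screen: M. tuberculosis growth, cholesterol and DPPC medium, 4 days; the read-out is not stated. Compounds at 50 µM. Direction is inferred from retests: higher values go with more growth inhibition. Of about 69,000 compounds tested this way, about 370 (0.54%) reached 50% or more in at least one test.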

- Cc1csc(-c2ccc(NC(=O)N3CCOCC3)cc2)n1 : Mtb glucose medium: 37.36%; Mtb cholesterol medium: 14.65%
- CCOc1ccc(S(=O)(=O)N(C)Cc2cnn(CC)c2)cc1 : Mtb glucose medium: -5.901%; Mtb cholesterol medium: 22.44%
- Cc1cn2nc(N3CCCC3C(=O)N3CCSCC3)sc2n1 (stereo not drawn) : Mtb glucose medium: -27.58%; Mtb cholesterol medium: -11.33%
- Cc1nc(NC(=O)CN2CCOC(Cn3cccn3)C2)sc1C (stereo not drawn) : Mtb glucose medium: 14.3%; Mtb cholesterol medium: 6.848%
- CC(C)c1noc(-c2ccc(NCCCN3CCCC(O)C3)nc2)n1 (stereo not drawn) : Mtb glucose medium: 3.122%; Mtb cholesterol medium: 7.387%
- Cc1cnn(CCC(=O)N2CCCC(c3noc(C)n3)C2)c1 (stereo not drawn) : Mtb glucose medium: 12.17%; Mtb cholesterol medium: 14.71%
- Cc1cnn(CC2CCCCN2CC(=O)Nc2nc(C)cs2)c1 (stereo not drawn) : Mtb glucose medium: 11.36%; Mtb cholesterol medium: -4.069%
- CC(C)N1CCN(C)CC(Cc2cc(N(C)C)ncn2)C1 (stereo not drawn) : Mtb glucose medium: 38.66%; Mtb cholesterol medium: 19.9%
- COc1ccc(-c2noc([C@@H]3C[C@H](NC(=O)NC(C)C)CN3C)n2)cc1 : Mtb glucose medium: 1.6% and -45.64%; Mtb cholesterol medium: -33.52%
- Cc1cnc(N2C(=O)CSC2c2ccc(N(C)C)cc2)s1 (stereo not drawn) : Mtb glucose medium: 34.74% and 41.09%; Mtb cholesterol medium: 37.69%
- O=C(CCc1cscn1)N1CCCC(c2ccn[nH]2)C1 (stereo not drawn) : Mtb glucose medium: -0.7625%; Mtb cholesterol medium: 9.159%
- Cc1cnn(C2CCCN(C(=O)CCc3ccncc3)C2)c1 (stereo not drawn) : Mtb glucose medium: 14.89% and 0.4005%; Mtb cholesterol medium: -7.018%
- O=C(O)C(F)(F)F.[H][C@]12C[C@H](C(=O)NC)N(C)[C@@]1([H])CN(S(=O)(=O)c1ccc(C)c(F)c1)C2 : Mtb glucose medium: -8.474% and -2.48%; Mtb cholesterol medium: -10.89%
- COc1ccccc1OC1CN(C(=O)C(c2ccccc2F)N(C)C)C1 (stereo not drawn) : Mtb glucose medium: -0.09939%; Mtb cholesterol medium: -16.75%
- O=C(CCn1ccccc1=O)Nc1ccc(I)cc1 : Mtb glucose medium: -28%; Mtb cholesterol medium: -26.98%
- CCCOCC1CCN(C(=O)Cn2cccc(C(F)(F)F)c2=O)C1 (stereo not drawn) : Mtb glucose medium: -7.825% and -4.705%; Mtb cholesterol medium: -2.302% and -29.08%
- [H][C@@]12COC[C@@H](Cc3nnc(C)o3)[C@]1([H])CN(C(=O)C1=CCCC1)C2 : Mtb glucose medium: 13.71% and 0.755%; Mtb cholesterol medium: 0.4547%
- O=C(Nc1c(F)cccc1Oc1ccccc1)C1CCS(=O)(=O)C1 (stereo not drawn) : Mtb glucose medium: -9.373% and 4.489%; Mtb cholesterol medium: 2.443%
- COC(=O)c1cccn1C1CCN(C(=O)c2c(C)noc2C)CC1 : Mtb glucose medium: 11.07%; Mtb cholesterol medium: -16.69%
- CC(C)(CO)CCCNC(=O)NC1(c2ccccc2F)CC1 : Mtb glucose medium: -0.7366%; Mtb cholesterol medium: -14.09%
- Cc1cccc(NCc2ncc(C(C)(C)C)o2)c1 : Mtb glucose medium: 28.57% and 33.2%; Mtb cholesterol medium: 25.38%
- CN(Cc1ccccc1Cl)C(C(=O)O)c1ccc(F)c(CO)c1 (stereo not drawn) : Mtb glucose medium: -4.286%; Mtb cholesterol medium: 1.511%
- O=C(CN1CCCC(Cn2cncn2)C1)NCCC1=CCCCC1 (stereo not drawn) : Mtb glucose medium: 8.562%; Mtb cholesterol medium: -0.1482%
- Cc1nn(C)c(C)c1Cc1nc(N(C)C)no1 : Mtb glucose medium: 9.334% and 4.373%; Mtb cholesterol medium: 1.015%
- COc1ccc(CNC(C)c2cn[nH]c2C)cc1 (stereo not drawn) : Mtb glucose medium: -13.46%; Mtb cholesterol medium: -3.449%
- Cc1nc(CN(C)c2nccc(N(C)C)n2)cs1 : Mtb glucose medium: 1.311% and -10.77%; Mtb cholesterol medium: 17.46%
- Cc1ccc(C2CSCCN2C(=O)c2ccoc2C)o1 (stereo not drawn) : Mtb glucose medium: -21.93% and 1.472%; Mtb cholesterol medium: 1.652%
- CCc1ncc2c(n1)CN(CC(O)COc1ccc(C#N)cc1)CC2 (stereo not drawn) : Mtb glucose medium: -7.71% and 25.74%; Mtb cholesterol medium: -3.854%
- O=C(O)C(F)(F)F.[H][C@@]12CCN(CCOC)C(=O)[C@@]1([H])CN(c1cc(OC)ncn1)C2 : Mtb glucose medium: -13.24% and -9.403%; Mtb cholesterol medium: -0.9121%
- CC(NC(=O)N(C)Cc1ccsc1)c1ccc2c(c1)OCO2 (stereo not drawn) : Mtb glucose medium: 8.867%; Mtb cholesterol medium: 16.41%
- CCc1[nH]c2c(CNc3cnccn3)cc(F)cc2c1C : Mtb glucose medium: 42.46%; Mtb cholesterol medium: 43.64%
- Cc1c[nH]c(C2COCCN2C(=O)CCc2c(C)n[nH]c2C)n1 (stereo not drawn) : Mtb glucose medium: -32.93%; Mtb cholesterol medium: -2.166% and -12.56%
- O=C(COc1cccc(F)c1)N1CCCCC1c1ccn2ccnc2n1 (stereo not drawn) : Mtb glucose medium: 5.656%; Mtb cholesterol medium: -2.272%
- Cc1cc(C)nc(N2CCCC(c3nccn3CCCN(C)C)C2)c1 (stereo not drawn) : Mtb glucose medium: -19.38%; Mtb cholesterol medium: -18.55%

The last 2 entries again:

O=C(COc1cccc(F)c1)N1CCCCC1c1ccn2ccnc2n1 (stereo not drawn) gave Mtb glucose medium: 5.656%; Mtb cholesterol medium: -2.272%.
Cc1cc(C)nc(N2CCCC(c3nccn3CCCN(C)C)C2)c1 (stereo not drawn) gave Mtb glucose medium: -19.38%; Mtb cholesterol medium: -18.55%.